PubChem BioAssay AID1259308 – NCATS, 2017
Purpose: 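Candidate targets for better recombinant protein yield in mammalian cells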 (primary screen). Cells: human HEK293 embryonic kidney cells stably expressing firefly luciferase (HEK-CMV-Luc2-Hygro). Reagents: single siRNA against human genes, 0.8 pmol siRNA per well. Timing: 72 h. Measured: 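Reporter luminescence and viable-cell signal on separate replicate plates, given as percent of non-targeting control and median/MAD z-scores, plus per-cell luciferase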. Direction: total luciferase, z-score and total luciferase, % of control: higher = more reporter protein produced. Hit rule: 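An siRNA counts as active if its total luciferase robust z-score exceeds 3; genes with two or more such siRNAs out of three were retested with fresh siRNAs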. Meaning of the calls: active = raised luciferase; inactive = no rise.
The whole screen tested about 59,000 reagents; this is an unselected part. Of all reagents, about 1,510 (2.6%) got an active call. 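Calls use total luciferase alone and ignore viability, so some active siRNAs may act by altering cell number.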 A number with no mark means an inactive call. Reagents against one gene are numbered here. Further read-outs or replicates are left out here. Reagent sequences are not shown.

{"gene symbol":"ZBED1P1 (zinc finger BED-type containing 1 pseudogene 1)","reagent":1,"total luciferase, z-score":1.28,"total luciferase, % of control":107}
{"gene symbol":"ZBED1P1 (zinc finger BED-type containing 1 pseudogene 1)","reagent":2,"total luciferase, z-score":-0.0748,"total luciferase, % of control":80.4}
{"gene symbol":"ZBED1P1 (zinc finger BED-type containing 1 pseudogene 1)","reagent":3,"total luciferase, z-score":0.237,"total luciferase, % of control":86.6}
{"gene symbol":"CCR1 (C-C motif chemokine receptor 1)","reagent":1,"total luciferase, z-score":0.0388,"total luciferase, % of control":82.7}
{"gene symbol":"CCR1 (C-C motif chemokine receptor 1)","reagent":2,"total luciferase, z-score":-0.00406,"total luciferase, % of control":81.8}
{"gene symbol":"CCR1 (C-C motif chemokine receptor 1)","reagent":3,"total luciferase, z-score":0.345,"total luciferase, % of control":88.8}
{"gene symbol":"PIWIL1 (piwi like RNA-mediated gene silencing 1)","reagent":1,"total luciferase, z-score":-0.295,"total luciferase, % of control":76}
{"gene symbol":"PIWIL1 (piwi like RNA-mediated gene silencing 1)","reagent":2,"total luciferase, z-score":-2.64,"total luciferase, % of control":29.4}
{"gene symbol":"PIWIL1 (piwi like RNA-mediated gene silencing 1)","reagent":3,"total luciferase, z-score":"3.13 (active)","total luciferase, % of control":144}
{"gene symbol":"WDR72 (WD repeat domain 72)","reagent":1,"total luciferase, z-score":-0.394,"total luciferase, % of control":74.1}
{"gene symbol":"WDR72 (WD repeat domain 72)","reagent":2,"total luciferase, z-score":-1.56,"total luciferase, % of control":50.8}
{"gene symbol":"WDR72 (WD repeat domain 72)","reagent":3,"total luciferase, z-score":-0.0844,"total luciferase, % of control":80.2}
{"gene symbol":"MICU1 (mitochondrial calcium uptake 1)","reagent":1,"total luciferase, z-score":-0.459,"total luciferase, % of control":72.8}
{"gene symbol":"MICU1 (mitochondrial calcium uptake 1)","reagent":2,"total luciferase, z-score":-0.697,"total luciferase, % of control":68}
{"gene symbol":"MICU1 (mitochondrial calcium uptake 1)","reagent":3,"total luciferase, z-score":-0.233,"total luciferase, % of control":77.2}
{"gene symbol":"SERTAD3 (SERTA domain containing 3)","reagent":1,"total luciferase, z-score":1.56,"total luciferase, % of control":113}
{"gene symbol":"SERTAD3 (SERTA domain containing 3)","reagent":2,"total luciferase, z-score":-0.725,"total luciferase, % of control":67.5}
{"gene symbol":"SERTAD3 (SERTA domain containing 3)","reagent":3,"total luciferase, z-score":-0.521,"total luciferase, % of control":71.5}
{"gene symbol":"BZW1 (basic leucine zipper and W2 domains 1)","reagent":1,"total luciferase, z-score":0.344,"total luciferase, % of control":88.7}
{"gene symbol":"BZW1 (basic leucine zipper and W2 domains 1)","reagent":2,"total luciferase, z-score":1.75,"total luciferase, % of control":117}
{"gene symbol":"BZW1 (basic leucine zipper and W2 domains 1)","reagent":3,"total luciferase, z-score":-0.635,"total luciferase, % of control":69.3}
